Results on 31 molecules are retold here after the supplement of paper PMC12889115.

The test system of the assay is Salmonella enterica serovar Typhimurium SL1344. As to the kind of experiment: bacterial growth OD600 after 18 h with compound and polymyxin B; higher = more bacterial growth (less inhibition). Conditions: 50 µM, Mueller-Hinton broth.

The structures appear in SMILES notation. The list shows a part of the results. These are raw signals, not scaled to a control.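 In the initial screen, polymyxin B was used at a concentration that permeabilizes Salmonella's outer membrane but not its inner membrane. Maximum growth was set by DMSO wells with or without polymyxin B. Since plates varied, data were ranked per plate, and compounds giving the lowest OD600 advanced as hits.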

For the molecule `COCc1ccc(C(=O)Nc2ccc(-c3nc(CNC(=O)c4cccc5nccnc45)c(C)o3)cc2)o1`, where the note is “polymyxin B 0.75 µg/mL”, the “bacterial growth OD600” value is 0.753. For the molecule `CN(Cc1nc(-c2ccc3c(c2)OCO3)no1)C1CCCc2ccccc21` (stereo unspecified), the “bacterial growth OD600” value (polymyxin B 1 µg/mL) came out at 0.467. For the molecule `CCN(Cc1nccn1C)C(=O)c1ccc(N2CCCC(O)C2)nc1` (stereo unspecified), the “bacterial growth OD600” value (polymyxin B 0.75 µg/mL) was 0.83. Still for that read-out and setting: then `O=C1OCCN1CCNc1nncc(-c2cccc3ccccc23)n1`, with 0.696; and `O=C(C1CCC1)N1CCOc2c(cc(-c3cccnc3)cc2OCCc2cccs2)C1`, with 0.795; and `CC(=O)N1CCCN(C(=O)CC2(c3ccccc3)CC(=O)N(CCCOc3cccnc3)C2=O)CC1` (stereo unspecified), with 0.904.

For the molecule `O=C(CCCc1ccccc1)Nc1cccc(N2CCC(NCCN3CCOCC3)CC2)c1`, the “bacterial growth OD600” value (polymyxin B 0.75 µg/mL) amounted to 0.757.

`Cc1c[nH]c(CN(C)C(=O)c2cccc(OC3CCN(S(=O)(=O)N(C)C)CC3)c2)n1`: the “bacterial growth OD600” value (polymyxin B 1 µg/mL) is 1.03. For the molecule `CC(=O)Nc1cc(C(=O)N2CCN(Cc3ncccc3C)CC2)c2c(c1)nc(C)n2Cc1ccccc1`, the “bacterial growth OD600” value (polymyxin B 0.75 µg/mL) worked out at 0.838. As for `CCOC(=O)C1(CCOc2ccccc2)CCCN(CC)C1` (stereo unspecified), under “polymyxin B 1 µg/mL”, the “bacterial growth OD600” value was determined as 1.08. Same read-out and setting: the figure for `CCOC(=O)C1(Cc2cccc(OC)c2)CCCN(Cc2cccc3nonc23)C1` (stereo unspecified) is 0.848. Regarding `O=C(NCC1CCCN(C2CCOCC2)C1)c1ccc(-c2ccccc2)cc1` (stereo unspecified), under “polymyxin B 1 µg/mL”, the “bacterial growth OD600” value amounted to 0.922. Still for that read-out and setting: the figure for `COc1ccccc1Oc1ncccc1CNC(=O)c1cccnc1OC` is 0.866.

Take `CCN1CCN(C2(C(=O)N(C)Cc3nc(C)c[nH]3)Cc3ccccc3C2)CC1`: under “polymyxin B 0.75 µg/mL”, the “bacterial growth OD600” value was found to be 0.88.

As for `O=C(NCc1ccccn1)c1cccc(OC2CCN(C(=O)c3ccoc3)CC2)c1`, the “bacterial growth OD600” value (polymyxin B 1 µg/mL) came out at 0.845. As to `COc1ccc(CN2C[C@@H]3C[C@@H](c4ccc(F)cc4)N4CCC[C@@]34C2=O)cc1`, the “bacterial growth OD600” value (polymyxin B 0.75 µg/mL) amounted to 0.772. With `COc1ccc(CNCc2cccnc2Oc2ccc(C)nc2)c(F)c1`, the “bacterial growth OD600” value (polymyxin B 1 µg/mL) was determined as 1.1.

`COc1ccc(C(=O)N2CCc3onc(-c4ccc(Cl)cc4)c3C2)cc1`: the “bacterial growth OD600” value (polymyxin B 0.75 µg/mL) was 0.42. In the case of `COc1ccc(-c2noc(-c3ccc(NCCc4cscn4)nc3)n2)cc1`, the “bacterial growth OD600” value (polymyxin B 1 µg/mL) amounted to 0.887.

Take `CCC1CN(CCNC(=O)CC2CCCC2)Cc2cc(OC)ccc2O1` (stereo unspecified): the “bacterial growth OD600” value (polymyxin B 0.75 µg/mL) was 0.89. Same read-out and setting: then `CCOC(=O)C1CCCN(C2CCN(c3ccc(C(=O)NCCN4CCOCC4)cc3)CC2)C1` (stereo unspecified), with 0.996. On the same count and under the same terms, the figure for `COc1ccccc1CCNC1CCN(c2ccc(C(=O)N(C)C)cc2)CC1` is 0.823; for `COCCO[C@H]1[C@H](NC(=O)C(C)C)c2ccccc2C12CCN(C(=O)c1cc(CC(C)C)on1)CC2` it is 0.885. Same read-out and setting: then `Cc1ccnc(N2CCC(C3CCN(Cc4cccnc4)CC3)C2)n1` (stereo unspecified), with 0.801. Take `Cn1cc(CCC(=O)NCc2cccnc2Oc2ccccc2F)cn1`: the “bacterial growth OD600” value (polymyxin B 0.75 µg/mL) was 0.816. Take `CN(Cc1ccon1)C(=O)C1(N2CCCCC2)Cc2ccccc2C1`: the “bacterial growth OD600” value (polymyxin B 0.75 µg/mL) turned out to be 0.781. On the same count and under the same terms, the figure for `COC(=O)C1CCCCN1C(=O)c1c(OC)cc(=O)n2c1CCN(Cc1cc(C)c(C)cc1C)CC2` (stereo unspecified) is 0.808; for `CCN1CCN(C2(C(=O)N3CCC[C@H]3CO)Cc3ccccc3C2)CC1` it is 0.84. Still for that read-out and setting: then `CN(CCC1CCOCC1)C(=O)c1cc(COc2ccccc2F)[nH]n1`, with 0.782; and `Cc1cnc(-n2ncc(C(=O)N(C)CC(O)c3ccccc3)c2C2CC2)nc1-c1cccs1` (stereo unspecified), with 0.892. As for `O=C(NCCCN1CCCC(O)C1)c1ccc(OC2CCN(C(=O)C3CC3)CC2)cc1` (stereo unspecified), where the note is “polymyxin B 1 µg/mL”, the “bacterial growth OD600” value was 1.06.
